Reference: US5101054A, “Novel fluorine-containing platinum complex” (priority 1989, dated 1992)
The amount applied is not stated for every result.

Test system: cisplatin resistant mouse leukemia cells L1210 (L1210/CDDP)
Assay: Experiment 2 growth inhibition of cisplatin resistant L1210/CDDP cells
Format: cell-based
Details: from values on L1210/CDDP and L1210 cells by printed equation

SMILES | a (drug sensitivity)
N.N.[Cl][Pt][Cl] [CDDP, cis-dichlorodiamine platinum (II)] | 6.3
N.N.O=C([O-])C1(C(=O)[O-])CCC1.[Pt+2] [CBDCA, cisdiamino-1,1-cyclobutanedicarboxylato platinum (II)] | 7.3
